Source: the supplement of paper PMC11348887
Where a name gives a salt, the structure may show the parent alone. Some of the results follow. Most values lie at the level of the controls, where differences are scatter. Where a SMILES comes first, the peptide text is derived from it.

Tested on: hPSC-derived cortical neurons (WA09)
Assay: nucleus area z-score vs screen plate; higher = larger nuclei (more mature)
Details: 5 µM; treatment: days 7-14 after plating, readout day 21

Structure (SMILES) | nucleus area z-score
O=C(O)/C=C/c1ccc(Cn2ccnc2)cc1 [Ozagrel HCl] | 0.269
CN1CCN(c2cccc(Nc3nc4c(-c5ccc(S(C)(=O)=O)cc5)cccn4n3)c2)CC1 | 0.346
CC(C)C[C@H](NC(=O)[C@H](Cc1ccccc1)NC(=O)c1cnccn1)B(O)O [Bortezomib (PS-341)] | -6.67
CN1CCN(c2ccc(Nc3ncc4cc(C#N)c(=O)n(C5CCCC5)c4n3)cc2)CC1 | -4.14
O=S(=O)(O)CCCS(=O)(=O)O [Eprodisate disodium] | 2.15
CCCCCCCCCCCCCCCCn1cc[n+](Cc2ccccc2)c1C | -18.2
C[C@@H](CN1CC(=O)NC(=O)C1)N1CC(=O)NC(=O)C1 [Dexrazoxane HCl (ICRF-187_ ADR-529)] | 0.63
CO[C@H]1/C=C/O[C@@]2(C)Oc3c(C)c(O)c4c(O)c(c(/C=N/N5CCN(C)CC5)c(O)c4c3C2=O)NC(=O)/C(C)=C\C=C\[C@H](C)[C@H](O)[C@@H](C)[C@@H](O)[C@@H](C)[C@H](OC(C)=O)[C@@H]1C [Rifampin] | -0.751
CC1(C)O[C@@H]2C[C@H]3[C@@H]4CCC5=CC(=O)CC[C@]5(C)[C@@]4(F)[C@@H](O)C[C@]3(C)[C@]2(C(=O)CCl)O1 [Halcinonide] | 0.0143
Nc1cccc(-c2cc3c(Oc4cccc(O)c4)ncnc3[nH]2)c1 | 0.605
Nc1ccc(C(=O)Nc2cccc(-c3nc(N4CCOCC4)c4oc5ncccc5c4n3)c2)cn1 | -3.02
CN1CCN(C2=Nc3ccccc3Oc3ccc(Cl)cc32)CC1 [Loxapine Succinate] | 0.272
C[C@H]1[C@H](C)CC[C@]2(C(=O)O)CC[C@]3(C)C(=CC[C@@H]4[C@@]5(C)CC[C@H](O)C(C)(C)[C@@H]5CC[C@]43C)[C@H]12 [Ursolic Acid] | -0.424
COc1cc(O)c(CC=C(C)C)c(O)c1C(=O)/C=C/c1ccc(O)cc1 [Xanthohumol] | 1.59
CC(C)NC[C@@H](C(=O)N1CCN(c2ncnc3c2[C@H](C)C[C@H]3O)CC1)c1ccc(Cl)cc1 | -5.51
OCc1ccccc1 [Benzyl alcohol] | 1.41
NC(=O)c1ncn([C@@H]2O[C@H](CO)[C@@H](O)[C@H]2O)c1O [Mizoribine] | 0.362
CC(C)(S)[C@@H](N)C(=O)O [Penicillamine] | -0.0897
CN(C)CC[C@H](CSc1ccccc1)Nc1ccc(S(=O)(=O)NC(=O)c2ccc(N3CCN(Cc4ccccc4-c4ccc(Cl)cc4)CC3)cc2)cc1[N+](=O)[O-] | -0.341
COCCOc1nc(-c2ccc(Cl)c(Cl)c2)n(-c2ccc(NC(=O)CCl)cc2)n1 [MI-2 (MALT1 inhibitor)] | -4.32
O=C(CCCN1CCN(c2ccccn2)CC1)c1ccc(F)cc1 [Azaperone] | -0.144
O=C(/C=C/c1ccc(CN(CCO)CCc2c[nH]c3ccccc23)cc1)NO [LAQ824 (Dacinostat)] | -8.22
CC(C)CC(NC(=O)C(Cc1ccccc1)NC(=O)C(CCC(N)=O)NC(=O)C(Cc1ccc(O)cc1)NC(=O)C(C)NC(=O)CNC(=O)C(CCCCN)NC(=O)C(Cc1c[nH]c2ccccc12)NC(=O)C(NC(=O)C(Cc1c[nH]c2ccccc12)NC(=O)C(CCCCN)NC(=O)CNC(=O)C(CC(N)=O)NC(=O)C(CCC(=O)O)NC(=O)C(Cc1c[nH]c2ccccc12)NC(=O)C(NC(=O)C(Cc1c[nH]c2ccccc12)NC(=O)C(CO)NC(=O)CNC(=O)C1CCCN1C(=O)C(Cc1c[nH]c2ccccc12)NC(=O)C(CCC(N)=O)NC(=O)C(Cc1ccccc1)NC(=O)CNC(=O)C(N)Cc1c[nH]cn1)C(C)O)C(C)O)C(=O)NC(CCCCN)C(=O)NCC(=O)NCC(=O)NCC(=O)NCC(=O)NC(CO)C(=O)NC(CCCNC(=N)N)C(=O)NC(CCCNC(=N)N)C(=O)NC(CCCNC(=N)N)C(=O)NC(CCCNC(=N)N)C(=O)NC(CCCNC(=N)N)C(=O)NC(CCCNC(=N)N)C(=O)NC(CCCNC(=N)N)C(=O)NC(CCCNC(=N)N)C(=O)NC(CCCNC(=N)N)C(=O)O (stereo not given) (H-HGFQWPGSWTWENGKWTWKGAYQFLKGGGGSRRRRRRRRR-OH; configuration not given here) | -4.85
O=C(O)P(=O)(O)O [Foscarnet Sodium] | 0.00333
COc1nc(-c2ccc3c(c2)OCO3)n(-c2ccc(NC(=O)CSc3ccccc3)cc2)n1 [SecinH3] | 0.499

A draw from above in order of molar mass, falling.
Structure (SMILES) | nucleus area z-score
CO[C@H]1/C=C/O[C@@]2(C)Oc3c(C)c(O)c4c(O)c(c(/C=N/N5CCN(C)CC5)c(O)c4c3C2=O)NC(=O)/C(C)=C\C=C\[C@H](C)[C@H](O)[C@@H](C)[C@@H](O)[C@@H](C)[C@H](OC(C)=O)[C@@H]1C [Rifampin] | -0.751
CC(C)NC[C@@H](C(=O)N1CCN(c2ncnc3c2[C@H](C)C[C@H]3O)CC1)c1ccc(Cl)cc1 | -5.51
COCCOc1nc(-c2ccc(Cl)c(Cl)c2)n(-c2ccc(NC(=O)CCl)cc2)n1 [MI-2 (MALT1 inhibitor)] | -4.32
CC(C)C[C@H](NC(=O)[C@H](Cc1ccccc1)NC(=O)c1cnccn1)B(O)O [Bortezomib (PS-341)] | -6.67
COc1cc(O)c(CC=C(C)C)c(O)c1C(=O)/C=C/c1ccc(O)cc1 [Xanthohumol] | 1.59
O=C(CCCN1CCN(c2ccccn2)CC1)c1ccc(F)cc1 [Azaperone] | -0.144
